Measurements published in PMC6668832, “Structural basis for recognition of the tumor suppressor protein PTPN14 by the oncoprotein E7 of human papillomavirus” (PLoS Biology, 2019).
Changes are numbered by the printed parent chain. Names and notes keep the numbering of the source. Results are given in words; binding and its absence hold for the method and conditions named. In cells and extracts the contact can be indirect. Binding can be weak; no strength is given. Sequences can lack the tags named with a protein.

Target: Flag-tagged C-terminal domain of HPV18 E7 (pcDNA3-Flag) (human papillomavirus 18 (HPV18))
Assay: co-IP; lysates of HeLa (Fig 5C) or C33a (Fig 5D) cells transiently expressing PTPN14 and Flag-tagged HPV18 E7 C-terminal constructs for 24 hours; anti-Flag M2 affinity gel; immunoblot

B1: wild-type PTPN14 (pcDNA3-V5-PTPN14-wild type) (protein, UniProt Q15678 1-1187)
chain: MPFGLKLRRTRRYNVLSKNCFVTRIRLLDSNVIECTLSVESTGQECLEAVAQRLELRETHYFGLWFLSKSQQARWVELEKPLKKHLDKFANEPLLFFGVMFYVPNVSWLQQEATRYQYYLQVKKDVLEGRLRCTLDQVIRLAGLAVQADFGDYNQFDSQDFLREYVLFPMDLALEEAVLEELTQKVAQEHKAHSGILPAEAELMYINEVERLDGFGQEIFPVKDNHGNCVHLGIFFMGIFVRNRIGRQAVIYRWNDMGNITHNKSTILVELINKEETALFHTDDIENAKYISRLFATRHKFYKQNKICTEQSNSPPPIRRQPTWSRSSLPRQQPYILPPVHVQCGEHYSETHTSQDSIFHGNEEALYCNSHNSLDLNYLNGTVTNGSVCSVHSVNSLNCSQSFIQASPVSSNLSIPGSDIMRADYIPSHRHSAIIVPSYRPTPDYETVMRQMKRGILHTDSQSQSLRNLNIINTHAYNQPEDLVYSQPEMRERHPYTVPYGPQGVYSNKLVSPSDQRNPKNNVVPSKPGASAISHTVSTPELANMQLQGSHNYSTAHMLKNYLFRPPPPYPRPRPATSTPDLASHRHKYVSGSSPDLVTRKVQLSVKTFQEDSSPVVHQSLQEVSEPLTATKHHGTVNKRHSLEVMNSMVRGMEAMTLKSLHLPMARRNTLREQGPPEEGSGSHEVPQLPQYHHKKTFSDATMLIHSSESEEEEEEAPESVPQIPMLREKMEYSAQLQAALARIPNKPPPEYPGPRKSVSNGALRQDQASLPPAMARARVLRHGPAKAISMSRTDPPAVNGASLGPSISEPDLTSVKERVKKEPVKERPVSEMFSLEDSIIEREMMIRNLEKQKMAGLEAQKRPLMLAALNGLSVARVSGREENRVDATRVPMDERFRTLKKKLEEGMVFTEYEQIPKKKANGIFSTAALPENAERSRIREVVPYEENRVELIPTKENNTGYINASHIKVVVGGAEWHYIATQGPLPHTCHDFWQMVWEQGVNVIAMVTAEEEGGRTKSHRYWPKLGSKHSSATYGKFKVTTKFRTDSVCYATTGLKVKHLLSGQERTVWHLQYTDWPDHGCPEDVQGFLSYLEEIQSVRRHTNSMLEGTKNRHPPIVVHCSAGVGRTGVLILSELMIYCLEHNEKVEVPMMLRLLREQRMFMIQTIAQYKFVYQVLIQFLQNSRLI
**Q.** Which binding does the source give for B1 here?
**A.** binds

B2: PTPN14 construct containing F1044S∙G1055Q∙E1095A mutations (cellular) (protein, UniProt Q15678 1-1187)
chain: B1 chain with F1044S, G1055Q, E1095A
**Q.** B2 was tested. Which binding did it give?
**A.** no binding
